US7288547B2, “CDK-inhibitory 2-heteroaryl-pyrimidines, their production and use as pharmaceutical agents” (Schering AG, priority 2002, dated 2007)

Test system: MCF7
Experiment: Proliferation Assay (crystal violet)
Assay type: cell-based
Details: Homo sapiens, MCF-7 cells, comparison with known reference compounds
Protocol: Cultivated human tumor cells (as indicated) were flattened out at a density of 5000 cells/measuring point in a 96-well multititer plate in 200 μl of the corresponding growth medium. After 24 hours, the cells of one plate (zero-point plate) were colored with crystal violet (see below), while the medium of the other plates was replaced by fresh culture medium (200 μl), to which the test substances were added in various concentrations (0 μm, as well as in the range of 0.01-30 μm; the final concentration of the solvent dimethyl sulfoxide was 0.5%). The cells were incubated for 4 days in the presence of test substances. The cell proliferation was determined by coloring the cells with crystal violet: the cells were fixed by adding 20 μl/measuring point of a 11% glutaric aldehyde solution for 15 minutes at room temperature. After three washing cycles of the fixed cells with water, the plates were dried at room temperature. The cells were colored by adding 100 μl/measuring point of a 0.1% crystal violet solution (pH was set at 3 by adding acetic acid). […] The extinction was determined by photometry at a wavelength of 595 nm. The change of cell growth, in percent, was calculated by standardization of the measured values to the extinction values of the zero-point plate (=0%) and the extinction of the untreated (0 μm) cells (=100%).

Compound: CC[C@@H](CO)Nc1nc(NCc2ccccc2)c2ncn(C(C)C)c2n1 [Roscovitine, reference compound]
- IC50: 8 µM
